Reference: PubChem BioAssay AID624291 (National Center for Advancing Translational Sciences (NCATS), 2012)
Screen size: about 350,000 compounds; about 220 (0.063%) were called active. The inconclusive results got no clear call from the source; some entries with a clear call stand among them for comparison. Calls follow the shape of the dose curve; as a rule, active = well fitted activation curve with a large enough effect; inconclusive = small, poorly fitted or top-dose-only effect; inactive = no such curve, though single readings can be large or run the other way. Where the call is inconclusive, the potency comes from a doubtful curve fit.
Potency is read from the fitted curve at half-maximal effect.

Test: qHTS for Activators of Integrin-Mediated Alleviation for Muscular Dystrophy; also: nearly all actives have a fitted effect of over 60% in size;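 as to activation: 100% = response of the positive control SU9516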
Settings: alpha7betagal myoblasts, beta-gal FDG fluorescence, 48 h; activation: at 38.3 µM (top of the series)
Method in brief: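 Alpha7betagal+/- myoblasts (passage 13) were plated 16-24 hr, then exposed to compounds (1:260 dilution of DMSO stock) for 48 hours at 37C. After MPER lysis, β-galactosidase reporter activity was read as FDG fluorescence (ex 480/em 540) after 30 minutes.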
With `Cc1cc(N2CCN(C)CC2)nc(-c2ccccc2O)n1` the Potency was inconclusive: 28.2 µM [activator, single point].
With `COc1cc(Cl)c(C)cc1NC(=O)c1ccc2c(SCC(=O)O)c3c(nc2c1)CCCC3` the “activation” value was inactive: 5.65%.
For `COc1ccc(S(=O)(=O)N2CCN(Cc3cccnc3)CC2)cc1`, the Potency was inconclusive: 0.794 µM [activator, single point].
With `COC(=O)c1sc(NC(=O)c2oc3ccccc3c2C)nc1C` the “activation” value was inactive: 20.6%.
With `Cc1cccnc1NC(=O)c1cccc(S(=O)(=O)N2CCN(c3ccccc3)CC2)c1` the “activation” value was inactive: -10.5%.
In the case of `Cc1cc(=O)c2c(o1)C(=O)c1occc1C2=O`, the “activation” value is reported as inactive: -41.6%.
With `COc1ccc(-c2c(C#Cc3ccsc3)c3cc(-c4ccc(C(N)=O)cc4)ccc3n2C)cc1` the “activation” value was inactive: 2.52%.
With `COc1ccccc1CN1CCN(C(=O)c2cccc3ccccc23)CC1` the Potency was inconclusive: 28.2 µM [activator, single point].
In the case of `c1ccn2cc(-c3ccc4c(c3)OCCO4)nc2c1`, the “activation” value is reported as inactive: 14.7%.
In the case of `O=C(Nc1ccn(CCCN2CCC(N3CCOCC3)CC2)c(=O)n1)OCc1ccccc1`, the Potency is reported as inconclusive: 2.51 µM [activator, partial curve].
For `CCOC(=O)N1CCN(CC(O)COc2c(C)cc(C)cc2C)CC1` (stereo not given), the Potency was inconclusive: 3.55 µM [activator, single point].
In the case of `NC(=O)CSc1nnc2ccc(-c3ccco3)nn12`, the Potency is reported as inconclusive: 2 µM [activator, single point].
For `CCn1c(-c2ccc(F)cc2)n[nH]c1=S`, the “activation” value was inactive: 26.7%.
For `CCCn1c(SCC(=O)Nc2ccc(S(=O)(=O)N(C)C)cc2)n[nH]c1=O`, the Potency was inconclusive: 14.1 µM [activator, single point].
For `Cc1c(C(=O)Nc2c(N)nc(SCC(=O)NCC3CCCO3)[nH]c2=O)cccc1[N+](=O)[O-]` (stereo not given), the Potency was inconclusive: 25.1 µM [activator, partial curve, poor fit].
With `Cc1ccc(C(C[N+](=O)[O-])c2c(N)n(C)c(=O)n(C)c2=O)cc1` (stereo not given) the Potency was inconclusive: 28.2 µM [activator, single point].
For `Cc1cccc(CS(=O)(=O)Cc2ccc(C(=O)NCc3cccs3)o2)c1`, the “activation” value was inactive: 11%.
With `O=C(CCC(=O)OCc1cccc([N+](=O)[O-])c1)Nc1ccc(F)cc1` the “activation” value was inactive: 3.02%.
For `CCn1ccnc1CN(C)Cc1cn[nH]c1-c1ccc(F)cc1F`, the Potency was inconclusive: 5.01 µM [activator, single point].
For `COC(=O)c1nn(-c2cccc(Cl)c2)ccc1=O`, the Potency was inconclusive: 5.01 µM [activator, single point].
In the case of `O=C(NCC(c1cccs1)N1CCOCC1)c1ccc(Cl)nc1` (stereo not given), the “activation” value is reported as inactive: -11.6%.
In the case of `Cc1occc1C(=O)N/N=C/c1cnn(C)c1C`, the Potency is reported as inconclusive: 12.6 µM [activator, partial curve, poor fit].
In the case of `Cc1ccc2oc(C(=O)N(C)Cc3cnccn3)c(C)c2c1`, the Potency is reported as inconclusive: 28.2 µM [activator, single point].
With `Cc1cc(NS(=O)(=O)c2ccc(NC(=O)C(C)Oc3cc(C)c(Cl)c(C)c3)cc2)no1` (stereo not given) the Potency was inconclusive: 7.94 µM [activator, partial curve, poor fit].
For `COc1ccc(-n2cnnc2SCC(=O)NC2CCCCC2)cc1`, the “activation” value was inactive: 16.4%.
In the case of `COc1ccc2[nH]c(=O)c(CN(CCc3ccccc3)Cc3nnnn3CC3CCCO3)cc2c1` (stereo not given), the “activation” value is reported as inactive: -10.9%.
For `CN(C)CCCNC(=O)c1cc(C(=O)Cc2ccccc2)c[nH]1`, the Potency was inconclusive: 2.51 µM [activator, single point].
In the case of `N#C/C(=C\c1ccc[nH]1)Sc1nc2ccccc2s1`, the Potency is reported as inconclusive: 2.82 µM [activator, single point].
With `CCOC(=O)C/C(N)=N/NC(=O)c1ccc(Cl)cc1Cl` the “activation” value was inactive: 7.66%.
For `CC(C)N1C(=S)N(Cc2ccco2)C(=O)C1CC(=O)Nc1ccccc1` (stereo not given), the “activation” value was inactive: -11.1%.
For `Cc1ccc(-n2nc3cc(C)c(NC(=S)NC(=O)/C=C/c4ccco4)cc3n2)cc1`, the “activation” value was inactive: 3.99%.
With `CC(C)(C)c1ccccc1NC(=S)NC1CCCC1` the Potency was inconclusive: 0.501 µM [activator, full curve, poor fit].
For `Cc1cccc(CN(C)C)c1CC(O)(c1ccccc1)c1ccccc1`, the “activation” value was inactive: 15.3%.
In the case of `O=C(Oc1ccc(C(=S)N2CCOCC2)cc1)c1cc([N+](=O)[O-])cc([N+](=O)[O-])c1`, the Potency is reported as inconclusive: 5.01 µM [activator, single point].
For `COc1ccc2cc(-c3ccon3)ccc2c1`, the Potency was inconclusive: 28.2 µM [activator, single point].
In the case of `O=C(CSc1nnc(NC(=O)c2c(F)cccc2F)s1)Nc1ccccc1F`, the Potency is reported as inconclusive: 0.501 µM [activator, full curve, poor fit].
For `CCOC(=O)COc1cc(N2C(=O)CSCC2=O)c(Cl)cc1Cl`, the “activation” value was inactive: 14.2%.
For `COc1ccc(/C=C/C(=O)N[C@@H](C)C(=O)O)cc1`, the Potency was inconclusive: 1.12 µM [activator, full curve].
With `CSC1=NSC2=NC(=O)/C(=C\c3coc4ccccc4c3=O)C(=N)N12` the Potency was inconclusive: 5.01 µM [activator, partial curve, poor fit].
With `COc1cc(C(=O)Nc2ccn(C)n2)ccc1OC(F)F` the Potency was inconclusive: 1.12 µM [activator, partial curve, poor fit].
In the case of `CSc1ccccc1OCc1cc(C(=O)NC2CCc3ccccc32)no1` (stereo not given), the Potency is reported as inconclusive: 3.16 µM [activator, single point].
With `CCN(CC)CCn1c2c(c(SCC(=O)Nc3cccc4ccccc34)nc1=O)CCC2` the “activation” value was inactive: -9.55%.
For `COc1ccc(S(=O)(=O)NCc2c(-c3ccccc3)noc2C)c(OC)c1`, the “activation” value was inactive: 13.5%.
With `N#Cc1ccc(OCc2ccc(C(=O)O)o2)cc1` the Potency was inconclusive: 1.78 µM [activator, partial curve, poor fit].
With `COC(=O)c1sc(C(F)(F)F)c(-c2ccccc2)c1S(=O)(=O)NC(C)(C)C` the Potency was inconclusive: 10 µM [activator, single point].
For `COc1ccc(CNC(=O)COC(=O)C2=Cc3ccccc3OC2)cc1`, the Potency was inconclusive: 5.01 µM [activator, single point].
For `COc1ccc(NC(=O)C2CCN(c3cnccn3)CC2)cc1OC`, the Potency was inconclusive: 12.6 µM [activator, partial curve, poor fit].
In the case of `O=C(c1ccccc1)C(c1ccccc1)c1ccccc1`, the “activation” value is reported as inactive: -27.3%.
In the case of `Cc1[nH]c2ccccc2c1/C=C(\C#N)C(=O)NCC1CCCO1` (stereo not given), the Potency is reported as inconclusive: 12.6 µM [activator, single point].
With `COC(C(=O)N/N=C(\C)CC(=O)Nc1ccc(Cl)cc1C)c1ccccc1` (stereo not given) the “activation” value was inactive: -32.1%.
With `CCN1CCCC1CNC(=O)C(=O)NC(C)c1ccccc1` (stereo not given) the Potency was inconclusive: 5.01 µM [activator, single point].
In the case of `Cc1cccc(N/C=C(\[N+](=O)[O-])S(=O)(=O)c2ccccc2)c1C`, the Potency is reported as inconclusive: 1.12 µM [activator, single point].
With `O=C(Nc1ccccc1C(=O)N/N=C/c1ccc(O)cc1)c1ccccc1` the Potency was inconclusive: 2.82 µM [activator, single point].
With `Cc1c(-n2c(SC(C)C(=O)NC(N)=O)nc3ccccc3c2=O)c(=O)n(-c2ccccc2)n1C` (stereo not given) the Potency was inconclusive: 28.2 µM [activator, single point].
With `Cc1cc(C)n(C(=O)CCCn2nc(C)c([N+](=O)[O-])c2C)n1` the Potency was inconclusive: 20 µM [activator, single point].
In the case of `CCCCCCCOC(=O)c1nc(Cl)c(Cl)c(N)c1Cl`, the Potency is reported as inconclusive: 7.94 µM [activator, partial curve].
With `COc1ccc(C2(c3ccc(OC(C)=O)cc3OC(C)=O)CC(c3ccccc3)NC(=S)N2)cc1` (stereo not given) the Potency was inconclusive: 5.01 µM [activator, single point].
For `CCC(Sc1ccc(Cl)cc1)C(=O)Nc1nnc(-c2cccc([N+](=O)[O-])c2)s1` (stereo not given), the “activation” value was inactive: 19.9%.
For `COc1cc(C(=O)Nc2ccc(S(=O)(=O)N(C)c3ccccc3)cc2)cc(OC)c1OC`, the “activation” value was inactive: -20.2%.
With `Cc1c(-c2ccc(Br)cc2)[n+](=O)c2c(n1[O-])CCCCC2` the Potency was inconclusive: 1.58 µM [activator, partial curve, poor fit].
For `COc1ccc(S(=O)(=O)NCC(c2ccco2)N2CCOCC2)cc1` (stereo not given), the Potency was inconclusive: 7.94 µM [activator, partial curve, poor fit].
For `COC(=O)c1ccc(C2C(Oc3ccccc3)C(=O)N2CCc2ccc(OC)c(OC)c2)cc1` (stereo not given), the Potency was inconclusive: 7.94 µM [activator, partial curve, poor fit].
With `CCc1nc2ccc(C(=O)NCCc3ccc(OC)c(OC)c3)cc2nc1CC` the “activation” value was inactive: 15.2%.
In the case of `N#C[C@@H]1N(Cc2ccccc2)C(=O)[C@H]2CC3C=CC21O3` (stereo not given in full), the Potency is reported as inconclusive: 28.2 µM [activator, single point].
With `CCn1nc(C)c(CN2CCc3c([nH]c4ccccc34)C2c2ccc(F)c(OC)c2)c1C` (stereo not given) the Potency was inconclusive: 3.98 µM [activator, single point].
With `Cc1ccc(N(CC(=O)Nc2cc(C)ccc2C)S(C)(=O)=O)cc1` the Potency was inconclusive: 5.01 µM [activator, single point].
With `CN(C)CCCNC1=CC(=O)CC(c2ccccc2)C1` (stereo not given) the Potency was inconclusive: 10 µM [activator, partial curve, poor fit].
For `COc1ccccc1C(CC(=O)Nc1ccc(Cl)cc1)c1ccc(OC(C)C)cc1` (stereo not given), the Potency was inconclusive: 28.2 µM [activator, single point].
For `CC(=O)N1CCN(C(=S)Nc2ccc(SC(F)F)cc2)CC1`, the Potency was inconclusive: 1.78 µM [activator, partial curve, poor fit].
For `COc1ccc(Br)cc1C1NC(=O)c2c(sc3c2CCN(C)C3)N1` (stereo not given), the “activation” value was inactive: -1.47%.
